Assay results published in PubChem BioAssay AID485298 (National Center for Advancing Translational Sciences (NCATS), 2010).
In all, about 320,000 compounds went through this assay and about 740 (0.23%) were called active. Inconclusive means that the source gave no clear call. Such entries were picked first, then a sample of the others. Calls follow the shape of the dose curve; as a rule, active = well fitted activation curve with a large enough effect; inconclusive = small, poorly fitted or top-dose-only effect; inactive = no such curve, though single readings can be large or run the other way. Potencies of inconclusive entries are doubtful fits and often do not repeat.

assay: qHTS Assay for Small Molecule Inhibitors of Mitochondrial Division or Activators of Mitochondrial Fusion; also: nearly all actives have a fitted effect of over 45% in size; as to growth rescue (activation): % of control where 0% means no effect; settings: S. cerevisiae fusion-defective mutant growth rescue, CellTiterGlo 48 h; growth rescue (activation): at 46.1 µM (top of the series) unless noted
Outline: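 S. cerevisiae fusion-defective temperature-sensitive mutants (e.g. fzo1-1, mgm1-5) grown 48 h at 37C in YPEG (ethanol/glycerol non-fermentable) medium with 23 nl compound per well; growth rescue read as CellTiterGlo luminescence.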
Potency is read from the fitted curve at half-maximal effect.

SMILES	Potency	growth rescue (activation)
O=S(=O)(NC1CCCCC1Oc1ccccc1)c1ccc(Cl)cc1 (stereo not drawn)	inconclusive: 31.6 µM [activator, single point]	
O=C(c1ccc(Sc2cccc(Cl)c2)c([N+](=O)[O-])c1)N1CCN(c2ccccn2)CC1	inconclusive: 3.55 µM [activator, single point]	
CCCCCCOc1ccc(C(=O)O)cc1C#N	inconclusive: 12.6 µM [activator, partial curve]	
C[C@@]12C(=O)Nc3cc(Cl)ccc3C(=O)N1[C@H]1c3cc(Br)ccc3OC[C@@H]1[C@@H]2c1ccccc1	inconclusive: 3.16 µM [activator, full curve]	
CC(C)(COC(=O)Nc1ccccc1)COC(=O)Nc1ccccc1	inconclusive: 22.4 µM [activator, single point]	
Cn1c(-c2c(N)n(-c3ccccc3)c3nc4ccccc4nc23)nc2ccccc21	inconclusive: 35.5 µM [activator, single point]	
Cc1ccc(-c2cc(-c3ccccc3)c3c(N)c(S(C)(=O)=O)sc3n2)cc1	inconclusive: 20 µM [activator, partial curve]	
c1ccc(CN2CCC(Nc3nc(-c4cccs4)nc4ccccc34)CC2)cc1	inconclusive: 35.5 µM [activator, single point]	
Cc1cccc(OCC(=O)Nc2ccccc2-c2ccccc2)c1	inconclusive: 35.5 µM [activator, single point]	
CCOC(=O)c1cc2sccc2n1CC(=O)c1ccc2c(c1)OCCO2	inconclusive: 12.6 µM [activator, partial curve]	
OCC1CCCN(c2ncnc3scc(-c4ccccc4)c23)C1 (stereo not drawn)	inconclusive: 3.55 µM [activator, single point]	
CC(NC(=O)CN(C)Cc1cccc(Cl)c1)c1ccccc1 (stereo not drawn)		inactive: 6.31%
O=C1/C(=C\c2ccc([N+](=O)[O-])cc2)CCc2ccccc21		inactive: -3.25%
CCN(C(=O)c1ccc2c(Cl)c3c(nc2c1)CCC3)c1cccc(C)c1	inconclusive: 35.5 µM [activator, single point]	
Clc1cccc(COn2c(-c3ccc(Cl)cc3Cl)nc3ncccc32)c1	inconclusive: 17.8 µM [activator, single point]	
Cc1cc(N2CCN(C)CC2)nc2ccc(NC(=S)N3CCN(c4cccc(Cl)c4)CC3)cc12		inactive: -3.19%
O=C(NCc1cccnc1)C(=O)C1C(=O)Nc2ccccc21 (stereo not drawn)	inconclusive: 28.2 µM [activator, single point]	
C/C(=N\NC(=O)c1ccccc1O)C1C(=O)c2ccccc2C1=O		inactive: 0.526%

Complete entries from above.
CCN(C(=O)c1ccc2c(Cl)c3c(nc2c1)CCC3)c1cccc(C)c1 is listed with Potency: inconclusive: 35.5 µM [activator, single point]
CC(NC(=O)CN(C)Cc1cccc(Cl)c1)c1ccccc1 (stereo not drawn) is listed with growth rescue (activation): inactive: 6.31%
